# The supplement of paper PMC8728848
# The other results are listed elsewhere or left out.
# Key:
# Experiment in all cases: glycan array binding signal (z-score within array); higher = stronger binding
# Conditions in all cases: glycan notation: IUPAC condensed, linker removed
# [1] = target: Gal(b1-4)GlcNAc(b1-3)Gal(b1-4)GlcNAc(b1-2)Man(a1-3)[Gal(b1-4)GlcNAc(b1-3)Gal(b1-4)GlcNAc(b1-2)Man(a1-6)]Man(b1-4)GlcNAc(b1-4)[Fuc(a1-6)]GlcNAc
# In short: (§1)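 From the Consortium for Functional Glycomics database, 3228 arrays were curated, keeping only those whose protein sequence was available. Binding is given as a within-array Z-score averaged across arrays sharing a protein sequence and across linkers. Negative Z-scores can be read as non-binding.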
# [2] = target: Gal(b1-4)GlcNAc(b1-3)Gal(b1-4)GlcNAc(b1-2)[Gal(b1-4)GlcNAc(b1-3)Gal(b1-4)GlcNAc(b1-6)]Man(a1-6)[Gal(b1-4)GlcNAc(b1-3)Gal(b1-4)GlcNAc(b1-2)Man(a1-3)]Man(b1-4)GlcNAc(b1-4)GlcNAc
# In short: as §1
# [3] = target: Gal(b1-4)GlcNAc(b1-3)Gal(b1-4)GlcNAc(b1-2)[Gal(b1-4)GlcNAc(b1-3)Gal(b1-4)GlcNAc(b1-6)]Man(a1-6)[Gal(b1-4)GlcNAc(b1-3)Gal(b1-4)GlcNAc(b1-2)Man(a1-3)]Man(b1-4)GlcNAc(b1-4)[Fuc(a1-6)]GlcNAc
# In short: as §1
# [4] = target: Gal(b1-4)GlcNAc(b1-3)Gal(b1-4)GlcNAc(b1-3)Gal(b1-4)GlcNAc
# In short: as §1
# [5] = target: Gal(b1-4)GlcNAc(b1-3)Gal(b1-4)GlcNAc(b1-3)Gal(b1-4)GlcNAc(b1-2)Man(a1-3)[Gal(b1-4)GlcNAc(b1-3)Gal(b1-4)GlcNAc(b1-3)Gal(b1-4)GlcNAc(b1-2)Man(a1-6)]Man(b1-4)GlcNAc(b1-4)GlcNAc
# In short: as §1
# [6] = target: Gal(b1-4)GlcNAc(b1-3)Gal(b1-4)GlcNAc(b1-3)Gal(b1-4)GlcNAc(b1-2)Man(a1-3)[Gal(b1-4)GlcNAc(b1-3)Gal(b1-4)GlcNAc(b1-3)Gal(b1-4)GlcNAc(b1-2)Man(a1-6)]Man(b1-4)GlcNAc(b1-4)[Fuc(a1-6)]GlcNAc
# In short: as §1
# [7] = target: Gal(b1-4)GlcNAc(b1-3)Gal(b1-4)GlcNAc(b1-3)Gal(b1-4)GlcNAc(b1-2)[Gal(b1-4)GlcNAc(b1-3)Gal(b1-4)GlcNAc(b1-3)Gal(b1-4)GlcNAc(b1-6)]Man(a1-6)[Gal(b1-4)GlcNAc(b1-3)Gal(b1-4)GlcNAc(b1-3)Gal(b1-4)GlcNAc(b1-2)Man(a1-3)]Man(b1-4)GlcNAc(b1-4)[Fuc(a1-6)]GlcNAc
# In short: as §1
# [8] = target: Gal(b1-4)GlcNAc(b1-3)Gal(b1-4)GlcNAc(b1-3)Gal(b1-4)GlcNAc(b1-3)Gal(b1-4)GlcNAc(b1-2)Man(a1-3)[Gal(b1-4)GlcNAc(b1-3)Gal(b1-4)GlcNAc(b1-3)Gal(b1-4)GlcNAc(b1-3)Gal(b1-4)GlcNAc(b1-2)Man(a1-6)]Man(b1-4)GlcNAc(b1-4)GlcNAc
# In short: as §1
# [9] = target: Gal(b1-4)GlcNAc(b1-3)Gal(b1-4)GlcNAc(b1-3)Gal(b1-4)GlcNAc(b1-3)Gal(b1-4)GlcNAc(b1-2)Man(a1-3)[Gal(b1-4)GlcNAc(b1-3)Gal(b1-4)GlcNAc(b1-3)Gal(b1-4)GlcNAc(b1-3)Gal(b1-4)GlcNAc(b1-2)Man(a1-6)]Man(b1-4)GlcNAc(b1-4)[Fuc(a1-6)]GlcNAc
# In short: as §1
# [10] = target: Gal(b1-4)GlcNAc(b1-3)Gal(b1-4)GlcNAc(b1-3)Gal(b1-4)GlcNAc(b1-3)Gal(b1-4)GlcNAc(b1-2)[Gal(b1-4)GlcNAc(b1-3)Gal(b1-4)GlcNAc(b1-3)Gal(b1-4)GlcNAc(b1-3)Gal(b1-4)GlcNAc(b1-6)]Man(a1-6)[Gal(b1-4)GlcNAc(b1-3)Gal(b1-4)GlcNAc(b1-3)Gal(b1-4)GlcNAc(b1-3)Gal(b1-4)GlcNAc(b1-2)Man(a1-3)]Man(b1-4)GlcNAc(b1-4)[Fuc(a1-6)]GlcNAc
# In short: as §1
# [11] = target: Gal(b1-4)GlcNAc(b1-3)Gal(b1-4)GlcNAc(b1-3)Gal(b1-4)GlcNAc(b1-3)Gal(b1-4)GlcNAc(b1-3)Gal(b1-4)GlcNAc(b1-2)Man(a1-3)[Gal(b1-4)GlcNAc(b1-3)Gal(b1-4)GlcNAc(b1-3)Gal(b1-4)GlcNAc(b1-3)Gal(b1-4)GlcNAc(b1-3)Gal(b1-4)GlcNAc(b1-2)Man(a1-6)]Man(b1-4)GlcNAc(b1-4)GlcNAc
# In short: as §1
# [12] = target: Gal(b1-4)GlcNAc(b1-3)Gal(b1-4)GlcNAc(b1-3)Gal(b1-4)GlcNAc(b1-3)Gal(b1-4)GlcNAc(b1-3)Gal(b1-4)GlcNAc(b1-2)Man(a1-3)[Gal(b1-4)GlcNAc(b1-3)Gal(b1-4)GlcNAc(b1-3)Gal(b1-4)GlcNAc(b1-3)Gal(b1-4)GlcNAc(b1-3)Gal(b1-4)GlcNAc(b1-2)Man(a1-6)]Man(b1-4)GlcNAc(b1-4)[Fuc(a1-6)]GlcNAc
# In short: as §1
# [13] = target: Gal(b1-4)GlcNAc(b1-3)Gal(b1-4)GlcNAc(b1-3)Gal(b1-4)GlcNAc(b1-3)Gal(b1-4)GlcNAc(b1-3)Gal(b1-4)GlcNAc(b1-2)[Gal(b1-4)GlcNAc(b1-3)Gal(b1-4)GlcNAc(b1-3)Gal(b1-4)GlcNAc(b1-3)Gal(b1-4)GlcNAc(b1-3)Gal(b1-4)GlcNAc(b1-6)]Man(a1-6)[Gal(b1-4)GlcNAc(b1-3)Gal(b1-4)GlcNAc(b1-3)Gal(b1-4)GlcNAc(b1-3)Gal(b1-4)GlcNAc(b1-3)Gal(b1-4)GlcNAc(b1-2)Man(a1-3)]Man(b1-4)GlcNAc(b1-4)[Fuc(a1-6)]GlcNAc
# In short: as §1
# [14] = target: Gal(b1-4)GlcNAc(b1-3)Gal(b1-4)GlcNAc(b1-3)Gal(b1-4)GlcNAc(b1-3)Gal(b1-4)GlcNAc(b1-3)Gal(b1-4)GlcNAc(b1-3)Gal(b1-4)GlcNAc(b1-2)Man(a1-3)[Gal(b1-4)GlcNAc(b1-3)Gal(b1-4)GlcNAc(b1-3)Gal(b1-4)GlcNAc(b1-3)Gal(b1-4)GlcNAc(b1-3)Gal(b1-4)GlcNAc(b1-3)Gal(b1-4)GlcNAc(b1-2)Man(a1-6)]Man(b1-4)GlcNAc(b1-4)GlcNAc
# In short: as §1
# [15] = target: Gal(b1-4)GlcNAc(b1-3)Gal(b1-4)GlcNAc(b1-3)GalNAc
# In short: as §1
# [16] = target: Gal(b1-4)GlcNAc(b1-3)Gal(b1-4)GlcNAc(b1-3)[Gal(b1-4)GlcNAc(b1-3)Gal(b1-4)GlcNAc(b1-6)]GalNAc
# In short: as §1
# [17] = target: Gal(b1-4)GlcNAc(b1-3)Gal(b1-4)GlcNAc(b1-6)[Gal(b1-3)]GalNAc
# In short: as §1
# [18] = target: Gal(b1-4)GlcNAc(b1-3)Gal(b1-4)[Fuc(a1-3)]GlcNAc(b1-3)Gal(b1-4)[Fuc(a1-3)]GlcNAc
# In short: as §1
# [19] = target: Gal(b1-4)GlcNAc(b1-3)GalNAc
# In short: as §1
# [20] = target: Gal(b1-4)GlcNAc(b1-3)[Fuc(a1-3)GlcNAc(b1-6)]Gal(b1-4)Glc
# In short: as §1
# [21] = target: Gal(b1-4)GlcNAc(b1-3)[Gal(b1-4)GlcNAc(b1-6)]Gal(b1-4)GlcNAc
# In short: as §1
# [22] = target: Gal(b1-4)GlcNAc(b1-3)[GlcNAc(b1-6)]Gal(b1-4)GlcNAc
# In short: as §1
# [23] = target: Gal(b1-4)GlcNAc(b1-6)Gal(b1-4)GlcNAc
# In short: as §1
# [24] = target: Gal(b1-4)GlcNAc(b1-6)GalNAc
# In short: as §1
# [25] = target: Gal(b1-4)GlcNAc(b1-6)[Gal(b1-3)]GalNAc
# In short: as §1
# [26] = target: Gal(b1-4)GlcNAc(b1-6)[Gal(b1-4)GlcNAc(b1-3)]GalNAc
# In short: as §1
# Gal(b1-4)GlcNAc6P = target: Gal(b1-4)GlcNAc6P
# In short: as §1
# Gal(b1-6)Gal = target: Gal(b1-6)Gal
# In short: as §1
# Gal3S(b1-3)GalNAc = target: Gal3S(b1-3)GalNAc
# In short: as §1
# Gal3S(b1-3)GlcNAc = target: Gal3S(b1-3)GlcNAc
# In short: as §1
# [27] = target: Gal3S(b1-3)[Fuc(a1-4)]GlcNAc
# In short: as §1
# Gal3S(b1-4)Glc = target: Gal3S(b1-4)Glc
# In short: as §1
# Gal3S(b1-4)Glc6S = target: Gal3S(b1-4)Glc6S
# In short: as §1
# Gal3S(b1-4)GlcNAc = target: Gal3S(b1-4)GlcNAc
# In short: as §1
# [28] = target: Gal3S(b1-4)[Fuc(a1-3)]Glc6S
# In short: as §1
# [29] = target: Gal3S(b1-4)[Fuc(a1-3)]GlcNAc
# In short: as §1
# [30] = target: Gal3S(b1-4)[Fuc(a1-3)]GlcNAc6S
# In short: as §1
# Gal3S4S(b1-4)GlcNAc = target: Gal3S4S(b1-4)GlcNAc
# In short: as §1
# Gal3S6S(b1-4)GlcNAc = target: Gal3S6S(b1-4)GlcNAc
# In short: as §1
# Gal3S6S(b1-4)GlcNAc6S = target: Gal3S6S(b1-4)GlcNAc6S
# In short: as §1
# Gal4S(b1-4)GlcNAc = target: Gal4S(b1-4)GlcNAc
# In short: as §1
# Gal4S6S(b1-4)GlcNAc = target: Gal4S6S(b1-4)GlcNAc
# In short: as §1
# Gal6P(b1-4)GlcNAc = target: Gal6P(b1-4)GlcNAc
# In short: as §1
# Gal6S(b1-3)GlcNAc = target: Gal6S(b1-3)GlcNAc
# In short: as §1
# Gal6S(b1-3)GlcNAc6S = target: Gal6S(b1-3)GlcNAc6S
# In short: as §1
binder,measurement,setting,value
LlpA (Burkholderia cenocepacia) (protein) MGSSHHHHHHSSGLVPRGSHKILGSNETLSAGNVVYSDNGQYHLAMQTDGNLVVYGPTGAVWQSQTSGSGGNRAVMQGDGNLVIYRADNTAAWSSKTAHPGAFLAVQDDGNVVIYWPRPAWASNTSDPATQQSAESKYLASGSTMSAGQTVTVAQYMLVFQADGNLVLYKNGGNPIWSTGTQGKGATYAVMQSDGNFVIYAGSTALWSTKTNGANGAQLVLQSDGNLVIYAPTAAWSTKFGLVTAPTSTSTSNNGPGSGICVGVCPPHPLNGNPFSPVGVGTTGLGFPTPGYPGAAF,glycan array binding signal (z-score),[1],2.46
same,glycan array binding signal (z-score),[2],0.339
same,glycan array binding signal (z-score),[3],1.91
same,glycan array binding signal (z-score),[4],0.591
same,glycan array binding signal (z-score),[5],0.176
same,glycan array binding signal (z-score),[6],1.62
same,glycan array binding signal (z-score),[7],1.03
same,glycan array binding signal (z-score),[8],-0.435
same,glycan array binding signal (z-score),[9],0.379
same,glycan array binding signal (z-score),[10],0.433
same,glycan array binding signal (z-score),[11],0.55
same,glycan array binding signal (z-score),[12],-0.882
same,glycan array binding signal (z-score),[13],1.58
same,glycan array binding signal (z-score),[14],0.115
same,glycan array binding signal (z-score),[15],0.526
same,glycan array binding signal (z-score),[16],0.857
same,glycan array binding signal (z-score),[17],0.061
same,glycan array binding signal (z-score),[18],-0.88
same,glycan array binding signal (z-score),[19],0.232
same,glycan array binding signal (z-score),[20],0.186
same,glycan array binding signal (z-score),[21],-0.705
same,glycan array binding signal (z-score),[22],-0.096
same,glycan array binding signal (z-score),[23],-0.14
same,glycan array binding signal (z-score),[24],1.04
same,glycan array binding signal (z-score),[25],-0.721
same,glycan array binding signal (z-score),[26],1.6
same,glycan array binding signal (z-score),Gal(b1-4)GlcNAc6P,-0.24
same,glycan array binding signal (z-score),Gal(b1-6)Gal,-0.766
same,glycan array binding signal (z-score),Gal3S(b1-3)GalNAc,-0.202
same,glycan array binding signal (z-score),Gal3S(b1-3)GlcNAc,0.17
same,glycan array binding signal (z-score),[27],-0.222
same,glycan array binding signal (z-score),Gal3S(b1-4)Glc,0.72
same,glycan array binding signal (z-score),Gal3S(b1-4)Glc6S,-0.45
same,glycan array binding signal (z-score),Gal3S(b1-4)GlcNAc,0.867
same,glycan array binding signal (z-score),[28],1.83
same,glycan array binding signal (z-score),[29],-0.583
same,glycan array binding signal (z-score),[30],0.427
same,glycan array binding signal (z-score),Gal3S4S(b1-4)GlcNAc,-0.458
same,glycan array binding signal (z-score),Gal3S6S(b1-4)GlcNAc,1.38
same,glycan array binding signal (z-score),Gal3S6S(b1-4)GlcNAc6S,1.42
same,glycan array binding signal (z-score),Gal4S(b1-4)GlcNAc,-0.325
same,glycan array binding signal (z-score),Gal4S6S(b1-4)GlcNAc,-0.942
same,glycan array binding signal (z-score),Gal6P(b1-4)GlcNAc,-1.18
same,glycan array binding signal (z-score),Gal6S(b1-3)GlcNAc,-0.403
same,glycan array binding signal (z-score),Gal6S(b1-3)GlcNAc6S,-0.227

# A section from further up, for reference:
binder,measurement,setting,value
LlpA (Burkholderia cenocepacia) (protein) MGSSHHHHHHSSGLVPRGSHKILGSNETLSAGNVVYSDNGQYHLAMQTDGNLVVYGPTGAVWQSQTSGSGGNRAVMQGDGNLVIYRADNTAAWSSKTAHPGAFLAVQDDGNVVIYWPRPAWASNTSDPATQQSAESKYLASGSTMSAGQTVTVAQYMLVFQADGNLVLYKNGGNPIWSTGTQGKGATYAVMQSDGNFVIYAGSTALWSTKTNGANGAQLVLQSDGNLVIYAPTAAWSTKFGLVTAPTSTSTSNNGPGSGICVGVCPPHPLNGNPFSPVGVGTTGLGFPTPGYPGAAF,glycan array binding signal (z-score),[3],1.91
same,glycan array binding signal (z-score),[4],0.591
same,glycan array binding signal (z-score),[5],0.176
